These are yes or no findings as the source states them, for the method shown. A result given as binding can be weak or reduced; the word gives no strength.

Assay [1] deals with uS12m (pig (endogenous in porcine liver)). Description: cryo-EM structure.
Assay [2] addresses uL16m (pig (endogenous in porcine liver)). Description: cryo-EM structure.

B1: mitochondria release factor 1a (protein, UniProt Q9UGC7 33-380)
chain: GGSGSGLEELFTRGGPLRTFLERQAGSEAHLKVRRPELLAVIKLLNEKERELRETEHLLHDENEDLRKLAENEITLCQKEITQLKHQIILLLVPSEETDENDLILEVTAGVGGQEAMLFTSEIFDMYQQYAAFKRWHFETLEYFPSELGGLRHASASIGGSEAYRHMKFEGGVHRVQRVPKTEKQGRVHTSTMTVAILPQPTEINLVINPKDLRIDTKRASGAGGQHVNTTDSAVRIVHLPTGVVSECQQERSQLKNKELAMTKLRAKLYSMHLEEEINKRQNARKIQIGSKGRSEKIRTYNFPQNRVTDHRINKTLHDLETFMQGDYLLDELVQSLKEYADYESLVEIISQKV
Consider B1, for which the binding entry in assay [1] is given as “binds”.

B2: mitochondrial ribosome recycling factor (protein, UniProt Q96E11 27-262)
chain: GGSGSGSEVTLKTVHERQHGHRQYMAYSAVPVRHFATKKAKAKGKGQSQTRVNINAALVEDIINLEEVNEEMKSVIEALKDNFNKTLNIRTSPGSLDKIAVVTADGKLALNQISQISMKSPQLILVNMASFPECTAAAIKAIRESGMNLNPEVEGTLIRVPIPQVTREHREMLVKLAKQNTNKAKDSLRKVRTNSMNKLKKSKDTVSEDTIRLIEKQISQMADDTVAELDRHLAVKTKELLG
With B2, the binding entry is “binds” in assay [2] and “binds weakly” in assay [1].

Values taken from publication doi:10.1101/2021.03.10.434893.
